Laboratory results reported in PMC11633749, “Identification of the Wnt signal peptide that directs secretion on extracellular vesicles” (Science Advances, 2024).
No constants are given. Whether binding was seen depends on the method and setting. For some assays here: Binding seen in cells or lysates may run through a third protein. Some entries that bind do so weakly or less than the wild type. For some assays here: Tags and fused reporters may be left off the sequences shown. Blank lines part the entries; values can stand above or below the binder they belong to.

How the values were obtained:
[1] = target: T1, COPB2 (coatomer protein), human (human (endogenous in HEK293T)) (UniProt P35606); assay: co-IP; lysate of HEK293T cells overexpressing Wnt7a-HA; immunoprecipitation with COPB2 or HA antibody on Dynabeads Protein G; 50 mM tris pH 7.5, 150 mM NaCl, 0.5% Triton X-100; immunoblot
T1 sequence: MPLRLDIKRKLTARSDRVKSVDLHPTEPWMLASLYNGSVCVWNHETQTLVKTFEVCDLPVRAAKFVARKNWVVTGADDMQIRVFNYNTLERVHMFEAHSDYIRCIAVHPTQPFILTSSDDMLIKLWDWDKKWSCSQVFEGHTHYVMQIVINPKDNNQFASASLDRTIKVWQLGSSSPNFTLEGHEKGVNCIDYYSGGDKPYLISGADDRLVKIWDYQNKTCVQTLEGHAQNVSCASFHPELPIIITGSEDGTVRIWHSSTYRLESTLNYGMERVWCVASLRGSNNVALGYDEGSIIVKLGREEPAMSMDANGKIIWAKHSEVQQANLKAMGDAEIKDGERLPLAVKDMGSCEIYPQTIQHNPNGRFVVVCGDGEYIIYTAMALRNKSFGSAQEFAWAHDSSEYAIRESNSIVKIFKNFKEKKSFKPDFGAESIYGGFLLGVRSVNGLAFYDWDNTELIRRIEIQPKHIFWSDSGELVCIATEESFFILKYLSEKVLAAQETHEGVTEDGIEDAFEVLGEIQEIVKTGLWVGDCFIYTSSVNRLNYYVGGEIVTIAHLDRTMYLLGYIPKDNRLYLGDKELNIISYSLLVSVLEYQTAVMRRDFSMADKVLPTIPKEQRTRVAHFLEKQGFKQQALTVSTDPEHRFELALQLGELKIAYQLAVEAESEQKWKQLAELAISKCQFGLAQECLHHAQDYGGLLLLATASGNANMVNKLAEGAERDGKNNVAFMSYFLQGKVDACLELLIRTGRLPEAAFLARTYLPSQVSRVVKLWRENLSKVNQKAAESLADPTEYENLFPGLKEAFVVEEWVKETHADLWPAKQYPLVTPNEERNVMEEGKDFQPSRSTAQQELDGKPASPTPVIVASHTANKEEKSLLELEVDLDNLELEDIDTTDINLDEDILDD

[2] = target: T2, COPB2_(1–304), N-terminal WD repeat of COPB2 (S. cerevisiae) (UniProt P41811); assay: condition: 450 μM of each peptide into 20 μM COPB2_(1–304); ITC; 450 μM of each peptide titrated into 20 μM COPB2 1-304; 25°C; 150 mM NaCl, 0.5 mM TCEP, 25 mM Hepes pH 7.5; one-site model; both purified
T2 sequence: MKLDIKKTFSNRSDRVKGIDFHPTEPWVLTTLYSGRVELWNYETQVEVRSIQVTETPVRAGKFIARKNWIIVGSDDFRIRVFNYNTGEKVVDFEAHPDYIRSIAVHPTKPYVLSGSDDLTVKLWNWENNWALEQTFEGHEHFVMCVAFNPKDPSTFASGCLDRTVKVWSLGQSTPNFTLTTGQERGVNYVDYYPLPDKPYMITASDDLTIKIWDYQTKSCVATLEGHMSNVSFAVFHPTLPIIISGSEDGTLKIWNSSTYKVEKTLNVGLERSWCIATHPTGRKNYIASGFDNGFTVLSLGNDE

[3] = target: T2, COPB2_(1–304), N-terminal WD repeat of COPB2 (S. cerevisiae); assay: crystal structure; COPB2 1-304 at 10 mg/ml (0.28 mM) incubated with 3 mM LKIKKP peptide; crystals in 0.1 M Hepes pH 7.0, 2.0 M AmSO4; molecular replacement with PDB 2YNN; both purified
[4] = target: T3, myc-tagged Wnt7a-BirA (UniProt O00755); assay: proximity ligation; Duolink PLA in fixed murine primary myotubes expressing Wnt7a-BirA or BirA; antibodies to Wnt7a and COPA or COPB2
T3 sequence: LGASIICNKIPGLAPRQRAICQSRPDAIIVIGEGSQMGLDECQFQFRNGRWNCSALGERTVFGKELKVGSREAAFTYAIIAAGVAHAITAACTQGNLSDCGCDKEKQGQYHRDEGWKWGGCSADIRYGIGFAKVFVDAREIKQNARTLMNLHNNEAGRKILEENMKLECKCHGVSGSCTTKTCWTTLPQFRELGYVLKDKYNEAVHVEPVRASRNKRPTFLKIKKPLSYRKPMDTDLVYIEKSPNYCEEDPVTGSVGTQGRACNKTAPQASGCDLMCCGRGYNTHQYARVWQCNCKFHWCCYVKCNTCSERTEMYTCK

[5] = target: T4, full-length Wnt7a-HA (Wnt7a-FL) (human) (UniProt O00755); assay: co-IP; lysate of HEK293T cells overexpressing Wnt7a-HA; immunoprecipitation with COPB2 or HA antibody on Dynabeads Protein G; 50 mM tris pH 7.5, 150 mM NaCl, 0.5% Triton X-100; immunoblot
T4 sequence: T3 sequence

binding [2]: no binding
Binder: SRNKRPT (peptide, UniProt O00755 244-250) [N-terminal half of the EBP polypeptide (244 to 250)]

binding [3]: binds
B2: Wnt_(252–257) peptide (LKIKKP) (peptide)
peptide: LKIKKP
notes: also called C-terminal half of the polypeptide

The remaining lines, values behind:

B1: full-length Wnt7a-HA (Wnt7a-FL) (protein, UniProt O00755 32-349)
chain: T3 sequence
binding [1]: binds

B3: COPB2 (coatomer protein), mouse (protein, UniProt O55029 1-905)
chain: MPLRLDIKRKLTARSDRVKSVDLHPTEPWMLASLYNGSVCVWNHETQTLVKTFEVCDLPVRAAKFVARKNWVVTGADDMQIRVFNYNTLERVHMFEAHSDYIRCIAVHPTQPFILTSSDDMLIKLWDWDKKWSCSQVFEGHTHYVMQIVINPKDNNQFASASLDRTIKVWQLGSSSPNFTLEGHEKGVNCIDYYSGGDKPYLISGADDRLVKIWDYQNKTCVQTLEGHAQNVSCASFHPELPIIITGSEDGTVRIWHSSTYRLESTLNYGMERVWCVASLRGSNNVALGYDEGSIIVKLGREEPAMSMDANGKIIWAKHSEVQQANLKAMGDTEIKDGERLPLAVKDMGSCEIYPQTIQHNPNGRFVVVCGDGEYIIYTAMALRNKSFGSAQEFAWAHDSSEYAIRESNSIVKIFKNFKEKKSFKPDFGAESIYGGFLLGVRSVNGLAFYDWENTELIRRIEIQPKHIFWSDSGELVCIATEESFFILKYLSEKVLAAQETHEGVTEDGIEDAFEVLGEIQEIVKTGLWVGDCFIYTSSVNRLNYYVGGEIVTIAHLDRTMYLLGYIPKDNRLYLGDKELNIVSYSLLVSVLEYQTAVMRRDFSMADKVLPTIPKEQRTRVAHFLEKQGFKQQALTVSTDPEHRFELALQLGELKIAYQLAVEAESEQKWKQLAELAISKCQFSLAQECLHHAQDYGGLLLLATASGNASMVNKLAEGAERDGKNNVAFMSYFLQGKLDACLELLIRTGRLPEAAFLARTYLPSQVSRVVKLWRENLSKVNQKAAESLADPTEYENLFPGLKEAFVVEEWVKETHADLWPAKQYPLVTPNEERNVMEEAKGFQPSRPTAQQEPDGKPASSPVIMASQTTHKEEKSLLELEVDLDNLELEDIDTTDINLDEDILDD
binding [4]: binds

B4: COPB2 (coatomer protein), human (protein, UniProt P35606 1-906)
chain: T1 sequence
binding [5]: binds
